Test results published in the supplement of paper PMC11006884.
Shown are results outside the selection of targets with a hit, which stands elsewhere. Single values of this set are uncertain. This is a selection; strong and weak results do not stand in their true shares.

Chains of the proteins cited; added tags and fusions are not shown. Lines headed by an entry give the natural chain unless they say otherwise; changes in a name come on top.
UniProt Q5MNZ6: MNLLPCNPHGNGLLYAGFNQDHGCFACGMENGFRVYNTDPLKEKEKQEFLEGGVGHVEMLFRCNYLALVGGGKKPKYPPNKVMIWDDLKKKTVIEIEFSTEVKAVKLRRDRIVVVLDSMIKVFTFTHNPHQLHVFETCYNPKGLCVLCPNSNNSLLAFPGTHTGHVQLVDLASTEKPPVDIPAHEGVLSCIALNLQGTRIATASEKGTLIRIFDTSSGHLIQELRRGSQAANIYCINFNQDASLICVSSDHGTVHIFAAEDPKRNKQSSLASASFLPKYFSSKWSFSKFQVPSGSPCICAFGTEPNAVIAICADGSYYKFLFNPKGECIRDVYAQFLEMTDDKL
UniProt Q58WW2: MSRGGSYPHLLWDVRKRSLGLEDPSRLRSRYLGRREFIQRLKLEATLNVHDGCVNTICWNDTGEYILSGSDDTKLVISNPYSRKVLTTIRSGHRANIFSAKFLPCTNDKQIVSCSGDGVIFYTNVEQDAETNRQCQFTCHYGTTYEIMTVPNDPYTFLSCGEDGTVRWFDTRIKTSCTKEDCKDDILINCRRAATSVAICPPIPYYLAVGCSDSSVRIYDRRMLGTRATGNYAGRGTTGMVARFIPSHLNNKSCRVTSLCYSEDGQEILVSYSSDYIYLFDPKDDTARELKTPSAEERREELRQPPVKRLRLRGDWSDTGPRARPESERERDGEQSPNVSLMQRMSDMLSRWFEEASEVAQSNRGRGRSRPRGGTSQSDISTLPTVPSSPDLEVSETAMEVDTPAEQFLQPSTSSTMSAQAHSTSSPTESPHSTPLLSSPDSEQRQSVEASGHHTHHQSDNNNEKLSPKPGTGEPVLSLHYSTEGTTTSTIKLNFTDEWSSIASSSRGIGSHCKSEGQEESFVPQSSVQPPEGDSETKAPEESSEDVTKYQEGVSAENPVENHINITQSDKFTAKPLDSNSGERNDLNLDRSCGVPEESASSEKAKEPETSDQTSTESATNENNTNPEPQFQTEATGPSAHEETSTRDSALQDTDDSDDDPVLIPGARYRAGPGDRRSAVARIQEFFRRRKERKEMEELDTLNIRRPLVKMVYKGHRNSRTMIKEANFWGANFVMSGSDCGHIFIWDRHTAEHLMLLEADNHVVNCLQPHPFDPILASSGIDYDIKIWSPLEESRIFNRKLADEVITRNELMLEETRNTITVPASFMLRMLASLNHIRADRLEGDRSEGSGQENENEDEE
UniProt Q5XPI4: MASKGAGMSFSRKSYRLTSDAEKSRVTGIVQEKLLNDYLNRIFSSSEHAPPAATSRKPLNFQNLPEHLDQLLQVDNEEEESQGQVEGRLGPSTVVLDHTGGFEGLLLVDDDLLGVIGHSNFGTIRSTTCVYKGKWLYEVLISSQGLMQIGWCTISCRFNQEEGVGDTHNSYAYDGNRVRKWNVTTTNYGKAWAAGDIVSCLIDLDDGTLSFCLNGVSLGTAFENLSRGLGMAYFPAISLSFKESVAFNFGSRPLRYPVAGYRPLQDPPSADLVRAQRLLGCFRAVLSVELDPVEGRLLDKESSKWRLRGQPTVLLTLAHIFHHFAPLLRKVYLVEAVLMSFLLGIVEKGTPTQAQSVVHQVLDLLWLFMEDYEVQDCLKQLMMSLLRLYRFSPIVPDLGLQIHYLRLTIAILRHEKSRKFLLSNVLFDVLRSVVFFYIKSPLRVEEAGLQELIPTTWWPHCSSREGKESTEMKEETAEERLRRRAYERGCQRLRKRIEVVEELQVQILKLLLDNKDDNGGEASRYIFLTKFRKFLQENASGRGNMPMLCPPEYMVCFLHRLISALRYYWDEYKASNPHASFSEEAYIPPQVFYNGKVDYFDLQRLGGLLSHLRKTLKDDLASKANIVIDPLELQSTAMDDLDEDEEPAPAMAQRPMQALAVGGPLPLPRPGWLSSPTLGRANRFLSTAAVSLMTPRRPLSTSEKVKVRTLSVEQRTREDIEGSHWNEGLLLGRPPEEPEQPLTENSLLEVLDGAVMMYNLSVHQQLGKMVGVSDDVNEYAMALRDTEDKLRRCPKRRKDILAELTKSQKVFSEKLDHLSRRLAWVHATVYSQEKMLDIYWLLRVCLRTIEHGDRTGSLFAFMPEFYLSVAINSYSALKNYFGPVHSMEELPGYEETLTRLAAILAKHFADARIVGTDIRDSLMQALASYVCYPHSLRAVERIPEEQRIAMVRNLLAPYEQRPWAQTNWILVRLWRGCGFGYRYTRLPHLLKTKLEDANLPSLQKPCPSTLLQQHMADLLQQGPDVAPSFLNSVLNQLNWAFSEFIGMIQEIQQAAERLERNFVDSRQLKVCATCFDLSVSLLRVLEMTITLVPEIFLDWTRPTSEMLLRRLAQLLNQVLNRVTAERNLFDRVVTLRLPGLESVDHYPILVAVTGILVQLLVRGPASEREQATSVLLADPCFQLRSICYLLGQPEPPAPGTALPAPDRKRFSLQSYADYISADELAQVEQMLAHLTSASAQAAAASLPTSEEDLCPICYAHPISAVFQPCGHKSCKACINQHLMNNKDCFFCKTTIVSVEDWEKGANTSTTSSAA
UniProt Q68D10: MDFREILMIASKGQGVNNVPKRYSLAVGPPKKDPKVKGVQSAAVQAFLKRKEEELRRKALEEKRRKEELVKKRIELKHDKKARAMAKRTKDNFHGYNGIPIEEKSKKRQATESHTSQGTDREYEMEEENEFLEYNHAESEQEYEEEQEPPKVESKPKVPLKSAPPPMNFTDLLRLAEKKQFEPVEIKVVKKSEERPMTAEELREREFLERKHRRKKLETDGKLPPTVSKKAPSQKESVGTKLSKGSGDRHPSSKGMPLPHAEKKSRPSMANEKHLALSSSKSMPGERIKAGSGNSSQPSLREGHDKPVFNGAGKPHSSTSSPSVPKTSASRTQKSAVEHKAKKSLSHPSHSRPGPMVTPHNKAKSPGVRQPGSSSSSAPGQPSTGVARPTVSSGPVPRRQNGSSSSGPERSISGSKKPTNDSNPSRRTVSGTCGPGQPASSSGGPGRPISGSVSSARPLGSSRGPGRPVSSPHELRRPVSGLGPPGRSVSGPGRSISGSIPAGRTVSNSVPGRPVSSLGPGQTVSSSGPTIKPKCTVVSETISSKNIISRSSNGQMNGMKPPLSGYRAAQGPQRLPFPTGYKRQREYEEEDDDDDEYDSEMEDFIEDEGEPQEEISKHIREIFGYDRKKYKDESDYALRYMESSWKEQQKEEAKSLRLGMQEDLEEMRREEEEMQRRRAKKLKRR
UniProt Q5W0B1: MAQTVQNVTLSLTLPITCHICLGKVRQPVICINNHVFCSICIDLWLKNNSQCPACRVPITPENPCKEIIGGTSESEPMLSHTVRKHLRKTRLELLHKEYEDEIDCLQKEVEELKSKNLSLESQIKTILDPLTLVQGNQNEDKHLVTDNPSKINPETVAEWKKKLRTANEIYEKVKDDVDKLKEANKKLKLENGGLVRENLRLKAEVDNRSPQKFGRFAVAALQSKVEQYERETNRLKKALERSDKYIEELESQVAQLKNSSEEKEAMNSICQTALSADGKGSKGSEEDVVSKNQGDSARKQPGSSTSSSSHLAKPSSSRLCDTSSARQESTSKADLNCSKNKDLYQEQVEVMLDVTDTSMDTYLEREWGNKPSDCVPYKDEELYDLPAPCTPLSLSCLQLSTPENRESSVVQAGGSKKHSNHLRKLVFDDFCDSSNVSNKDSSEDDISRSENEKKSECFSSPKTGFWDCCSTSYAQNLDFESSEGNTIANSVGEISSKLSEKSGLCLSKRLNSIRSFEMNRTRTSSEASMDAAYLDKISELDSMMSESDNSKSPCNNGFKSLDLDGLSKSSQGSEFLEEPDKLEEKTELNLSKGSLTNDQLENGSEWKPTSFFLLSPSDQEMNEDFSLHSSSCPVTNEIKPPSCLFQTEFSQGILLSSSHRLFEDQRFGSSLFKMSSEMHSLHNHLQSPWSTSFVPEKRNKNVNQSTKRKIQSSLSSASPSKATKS
UniProt Q66GS9: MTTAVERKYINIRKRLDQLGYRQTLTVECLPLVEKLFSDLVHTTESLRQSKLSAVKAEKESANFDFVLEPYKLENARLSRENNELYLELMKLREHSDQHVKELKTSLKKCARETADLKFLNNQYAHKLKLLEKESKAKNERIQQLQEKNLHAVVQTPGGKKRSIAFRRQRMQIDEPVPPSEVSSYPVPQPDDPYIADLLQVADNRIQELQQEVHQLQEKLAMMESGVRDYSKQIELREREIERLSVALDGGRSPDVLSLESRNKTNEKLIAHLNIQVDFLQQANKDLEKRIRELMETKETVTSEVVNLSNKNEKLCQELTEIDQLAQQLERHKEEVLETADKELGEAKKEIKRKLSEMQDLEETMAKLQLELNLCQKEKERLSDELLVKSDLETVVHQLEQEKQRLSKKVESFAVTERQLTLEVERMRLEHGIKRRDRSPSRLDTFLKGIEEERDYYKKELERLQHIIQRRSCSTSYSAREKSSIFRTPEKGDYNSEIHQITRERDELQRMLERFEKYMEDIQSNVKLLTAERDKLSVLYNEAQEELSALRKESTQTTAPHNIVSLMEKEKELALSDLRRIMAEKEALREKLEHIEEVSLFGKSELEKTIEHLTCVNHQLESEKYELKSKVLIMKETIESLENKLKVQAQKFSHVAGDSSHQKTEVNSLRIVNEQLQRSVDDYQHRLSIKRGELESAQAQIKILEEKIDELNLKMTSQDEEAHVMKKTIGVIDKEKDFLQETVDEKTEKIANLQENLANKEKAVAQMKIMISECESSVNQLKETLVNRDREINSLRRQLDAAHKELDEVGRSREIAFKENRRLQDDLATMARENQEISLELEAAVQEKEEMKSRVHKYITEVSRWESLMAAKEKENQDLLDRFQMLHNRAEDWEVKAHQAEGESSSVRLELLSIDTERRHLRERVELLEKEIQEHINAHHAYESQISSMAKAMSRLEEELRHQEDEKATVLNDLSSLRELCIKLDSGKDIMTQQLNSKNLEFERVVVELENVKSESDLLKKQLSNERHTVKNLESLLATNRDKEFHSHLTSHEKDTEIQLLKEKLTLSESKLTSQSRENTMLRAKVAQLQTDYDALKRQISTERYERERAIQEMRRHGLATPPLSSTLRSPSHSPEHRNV
UniProt Q6P1L5: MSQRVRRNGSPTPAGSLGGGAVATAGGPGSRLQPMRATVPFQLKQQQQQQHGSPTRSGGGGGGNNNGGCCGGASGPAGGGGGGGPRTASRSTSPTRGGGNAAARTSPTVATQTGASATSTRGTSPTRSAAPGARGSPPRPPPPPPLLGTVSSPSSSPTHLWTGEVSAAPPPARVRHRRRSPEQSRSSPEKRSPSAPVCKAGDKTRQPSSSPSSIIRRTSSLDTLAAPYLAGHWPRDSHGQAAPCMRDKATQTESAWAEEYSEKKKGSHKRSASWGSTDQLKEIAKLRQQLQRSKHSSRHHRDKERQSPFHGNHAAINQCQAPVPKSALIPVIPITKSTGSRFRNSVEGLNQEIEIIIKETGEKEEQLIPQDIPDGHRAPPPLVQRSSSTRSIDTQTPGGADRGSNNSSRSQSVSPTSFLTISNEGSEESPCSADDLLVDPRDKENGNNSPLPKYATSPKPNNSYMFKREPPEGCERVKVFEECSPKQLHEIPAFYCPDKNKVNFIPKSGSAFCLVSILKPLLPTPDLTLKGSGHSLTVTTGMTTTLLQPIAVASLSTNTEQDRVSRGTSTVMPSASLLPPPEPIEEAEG
UniProt Q6P4A7: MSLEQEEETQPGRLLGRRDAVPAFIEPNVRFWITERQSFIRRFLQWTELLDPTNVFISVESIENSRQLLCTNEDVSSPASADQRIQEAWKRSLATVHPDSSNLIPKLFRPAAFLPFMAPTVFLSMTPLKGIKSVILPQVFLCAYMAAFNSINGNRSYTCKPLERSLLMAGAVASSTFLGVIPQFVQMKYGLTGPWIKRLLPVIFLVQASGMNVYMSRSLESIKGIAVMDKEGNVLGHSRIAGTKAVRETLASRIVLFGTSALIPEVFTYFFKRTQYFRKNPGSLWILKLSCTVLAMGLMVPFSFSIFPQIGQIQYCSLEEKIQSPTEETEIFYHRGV
UniProt Q5JTD0: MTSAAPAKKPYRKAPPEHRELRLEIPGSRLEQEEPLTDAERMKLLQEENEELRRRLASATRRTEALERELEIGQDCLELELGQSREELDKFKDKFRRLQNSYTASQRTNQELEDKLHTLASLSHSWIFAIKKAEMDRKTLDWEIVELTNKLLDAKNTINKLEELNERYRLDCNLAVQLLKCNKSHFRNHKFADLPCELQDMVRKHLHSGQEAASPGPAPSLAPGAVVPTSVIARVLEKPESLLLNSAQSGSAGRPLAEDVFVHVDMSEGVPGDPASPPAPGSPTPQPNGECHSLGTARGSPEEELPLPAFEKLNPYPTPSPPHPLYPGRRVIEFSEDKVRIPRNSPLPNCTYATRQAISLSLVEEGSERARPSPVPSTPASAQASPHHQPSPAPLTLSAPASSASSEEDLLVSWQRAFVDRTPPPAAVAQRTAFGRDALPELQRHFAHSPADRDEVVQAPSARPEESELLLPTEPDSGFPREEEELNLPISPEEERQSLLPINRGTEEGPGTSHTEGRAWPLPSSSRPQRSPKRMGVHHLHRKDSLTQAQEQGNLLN

Compound: COC(=O)/C=C/c1ccccc1 [methyl cinnamate]
Experiment: log2 ratio of iodoacetamide-alkyne labeling of the cysteine site, DMSO over compound (competition); higher = stronger covalent engagement of the cysteine by the compound, active = 1 or more
Conditions: 500 µM; treatment time 1 h; system: HEK293T cell lysate
Summary of the method: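 For each cysteine, the log2 competition ratio is mean control-channel reporter intensity over mean compound-channel reporter intensity. HEK293T lysate (2 mg/mL) was exposed to vehicle or electrophile (500 µM, 1 h, ambient temperature), labelled with iodoacetamide alkyne (1 h), clicked to sCIP-TMT reagents, digested overnight with trypsin at 37 °C, streptavidin-enriched and analysed by Orbitrap Eclipse LC-MS/MS with FAIMS and FragPipe. Cysteines quantified in only one of three replicates, each with duplicate channels, were excluded.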

log2 ratio of iodoacetamide-alkyne labeling, inactive:
UniProt Q5MNZ6_C6 0.16
ANKRD40 C358 (UniProt Q6AI12) 0.328
UniProt Q58WW2_C593 0.357
NT5DC1 C179 (UniProt Q5TFE4) 0.161
RSBN1L C818 (UniProt Q6PCB5) 0.0999
RNF123 C1180 (UniProt Q5XPI4) 0.232
AARS2 C750 (UniProt Q5JTZ9) 0.0701
UniProt Q5VUJ6_C145 0.12
UniProt Q6ZSZ5_C699 0.217
LYRM7 C97 (UniProt Q5U5X0) 0.382
SPTY2D1 C433 (UniProt Q68D10) 0.333
HSDL2 C11 (UniProt Q6YN16) 0.0719
PRPF8 C772 (UniProt Q6P2Q9) 0.305
INTS3 C498 (UniProt Q68E01) 0.3
UniProt Q5W0B1_C105 0.0199
RPRD2 C903 (UniProt Q5VT52) 0.288
UBAP2 C104 (UniProt Q5T6F2) 0.169
UniProt Q6S8J3_C972 0.225
UniProt Q5JSZ5_C1482 0.161
ZNF318 C2025 (UniProt Q5VUA4) -0.117
CEP135 C316 (UniProt Q66GS9) -0.167
BCOR C1044 (UniProt Q6W2J9) 0.247
THOC7 C38 (UniProt Q6I9Y2) 0.447
ANKRD11 C1845 (UniProt Q6UB99) 0.557
UniProt Q6PJG6_C487 0.163
CEP128 C915 (UniProt Q6ZU80) 0.362
IQSEC1 C906 (UniProt Q6DN90) 0.0691
FAM117B C244 (UniProt Q6P1L5) 0.28
SFXN4 C70 (UniProt Q6P4A7) 0.228
SH3PXD2A C384 (UniProt Q5TCZ1) 0.297
ZNF770 C369 (UniProt Q6IQ21) 0.114
UniProt Q6GMV3_C118 -0.249
WDR73 C106 (UniProt Q6P4I2) -0.11
NCAPH2 C342 (UniProt Q6IBW4) 0.144
EDC4 C54 (UniProt Q6P2E9) 0.286
TJAP1 C76 (UniProt Q5JTD0) 0.351
NIPBL C304 (UniProt Q6KC79) 0.314

8 neighbouring records already listed, quoted:
log2 ratio of iodoacetamide-alkyne labeling, inactive:
IQSEC1 C906 (UniProt Q6DN90) 0.0691
FAM117B C244 (UniProt Q6P1L5) 0.28
SFXN4 C70 (UniProt Q6P4A7) 0.228
SH3PXD2A C384 (UniProt Q5TCZ1) 0.297
ZNF770 C369 (UniProt Q6IQ21) 0.114
UniProt Q6GMV3_C118 -0.249
WDR73 C106 (UniProt Q6P4I2) -0.11
NCAPH2 C342 (UniProt Q6IBW4) 0.144
